Results deposited as PubChem BioAssay AID1159595 (NIAID, 2016).

- Screen: 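Which toll-like receptor pathway genes macrophages need for Pam3CSK4-induced Tnf promoter activity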 (primary screen)
- Cells: mouse RAW264.7 macrophage reporter cells
- Reagent: single siRNA against mouse genes
- Timing: assayed 48 to 72 hours after siRNA transfection; ligand applied for 16 hours
- Treatment: Pam3CSK4 (TLR2 ligand) for 16 hours before fixation; dose not given
- Measured: 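Nuclear mCherry from a Tnf promoter reporter imaged after 16 h Pam3CSK4, 48–72 h post-transfection; background subtracted, plate median/MAD normalised, robust z-scores averaged over replicates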
- Direction: Tnf reporter z-score (replicate mean): higher = stronger Tnf promoter reporter signal than negative control wells
- Active means: 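An siRNA is active when its replicate-mean z-score is -1.5 or lower or 1.5 or higher (activity score at least 50); activity graded at absolute z 1, 1.5, 2 and 2.5; calls apply to single siRNAs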
- Meaning of the calls: active = strong change (up or down); inactive = little change
In all, the deposit lists 756 reagents; below is a random part of them. 115 of them (15%) count as active. 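Active calls cover both lowered and raised reporter signal; each score refers to one siRNA rather than a whole gene.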 Reagents against one gene are numbered here. Reagent sequences are not shown. Not stated in the record: the amount of reagent.

Tnf reporter z-score (replicate mean), by gene and reagent
Fadd: #1 -0.702 inactive; #2 -2.26 active; #3 -0.627 inactive; #4 0.503 inactive; #5 -0.564 inactive; #6 -0.934 inactive
Ccl3: #1 -0.642 inactive; #2 0.379 inactive; #3 -0.813 inactive; #4 -0.488 inactive; #5 -0.172 inactive; #6 -1.66 active
Akt1: #1 0.0242 inactive; #2 -1.18 inactive; #3 0.205 inactive; #4 0.113 inactive; #5 -0.78 inactive; #6 -0.571 inactive
Mapk10: #1 1.63 active; #2 1.39 inactive; #3 -0.635 inactive; #4 0.968 inactive; #5 -0.767 inactive; #6 -0.196 inactive
Pik3cb: #1 0.0977 inactive; #2 -2.19 active; #3 -0.224 inactive; #4 0.866 inactive; #5 -1.72 active; #6 -1.55 active
Ube2v1: #1 -0.408 inactive; #2 0.42 inactive; #3 0.203 inactive; #4 0.224 inactive; #5 2.63 active; #6 -2.57 active
Tbkbp1: #1 -0.321 inactive; #2 -0.846 inactive; #3 0.968 inactive; #4 0.375 inactive; #5 0.889 inactive; #6 -0.0936 inactive
Rac1: #1 0.261 inactive; #2 1.45 inactive; #3 -1.51 active; #4 -0.436 inactive; #5 -0.255 inactive; #6 0.806 inactive
Tnf: #1 -0.363 inactive; #2 0.679 inactive; #3 -1.27 inactive; #4 -0.799 inactive; #5 -1.44 inactive; #6 -2.38 active
Map2k3: #1 -0.242 inactive; #2 -0.66 inactive; #3 0.178 inactive; #4 -1.12 inactive; #5 -0.862 inactive; #6 0.346 inactive
Tirap: #1 -2.05 active; #2 -1.14 inactive; #3 -1.13 inactive; #4 -1.8 active; #5 0.166 inactive; #6 -2.49 active
Elk1: #1 -1.33 inactive; #2 0.984 inactive; #3 -0.0338 inactive; #4 -3.67 active; #5 -2.19 active; #6 -2 active
Nfkbia: #1 -0.421 inactive; #2 0.36 inactive; #3 1.96 active; #4 0.929 inactive; #5 1.64 active; #6 -1.04 inactive
Pik3r1: #1 -1.39 inactive; #2 0.0859 inactive; #3 0.228 inactive; #4 0.21 inactive; #5 -0.427 inactive; #6 -1.28 inactive
Map2k1: #1 0.426 inactive; #2 -0.998 inactive; #3 -0.737 inactive; #4 0.183 inactive; #5 -0.623 inactive; #6 -0.973 inactive
Ptpn6: #1 0.753 inactive; #2 0.24 inactive; #3 -0.606 inactive; #4 -0.737 inactive; #5 -1.11 inactive; #6 -3.6 active
Mapk9: #1 -0.106 inactive; #2 -0.00749 inactive; #3 -1.27 inactive; #4 0.821 inactive; #5 -0.794 inactive; #6 0.365 inactive
Map3k7: #1 -1.03 inactive; #2 0.266 inactive; #3 -0.734 inactive; #4 0.592 inactive; #5 -0.331 inactive; #6 -1.76 active
Tlr6: #1 -0.313 inactive; #2 1.28 inactive; #3 -1.97 active; #4 -0.88 inactive; #5 0.252 inactive; #6 -0.415 inactive
Pik3cg: #1 1.27 inactive; #2 -1.85 active; #3 0.601 inactive; #4 1.07 inactive; #5 -0.973 inactive; #6 -2.23 active
Irak1: #1 -0.516 inactive; #2 0.59 inactive; #3 -0.544 inactive; #4 -0.00972 inactive; #5 -0.0772 inactive; #6 -0.46 inactive
Mapk13: #1 -1.47 inactive; #2 -1.19 inactive; #3 -0.851 inactive; #4 -1.07 inactive; #5 -0.637 inactive; #6 -1.28 inactive
Mapk3: #1 -1.69 active; #2 1.52 active; #3 -0.68 inactive; #4 -0.242 inactive; #5 -1.25 inactive; #6 0.8 inactive
Otud5: #1 0.177 inactive; #2 -1.45 inactive; #3 -0.576 inactive; #4 -0.755 inactive; #5 -1.13 inactive; #6 -1.22 inactive
